Assay results published in patent US20210017532A1 (INSTITUTE OF GENETICS AND DEVELOPMENTAL BIOLOGY CHINESE …, published 2021).
These are yes or no findings as the source states them, for the method shown. For some of these results: Binding seen in cells or lysates may run through a third protein. Some entries that bind do so weakly or less than the wild type. Tags and fused reporters may be left off the sequences shown. Blank lines part the entries; values can stand above or below the binder they belong to.

Tests used:
OsSPL14 [1] = target: T1, OsSPL14 (rice, UniProt Q7EXZ2 1-417); assay: co-immunoprecipitation
T1 construct: also called SBP-domain transcription factor OsSPL14
T1 sequence (looked up): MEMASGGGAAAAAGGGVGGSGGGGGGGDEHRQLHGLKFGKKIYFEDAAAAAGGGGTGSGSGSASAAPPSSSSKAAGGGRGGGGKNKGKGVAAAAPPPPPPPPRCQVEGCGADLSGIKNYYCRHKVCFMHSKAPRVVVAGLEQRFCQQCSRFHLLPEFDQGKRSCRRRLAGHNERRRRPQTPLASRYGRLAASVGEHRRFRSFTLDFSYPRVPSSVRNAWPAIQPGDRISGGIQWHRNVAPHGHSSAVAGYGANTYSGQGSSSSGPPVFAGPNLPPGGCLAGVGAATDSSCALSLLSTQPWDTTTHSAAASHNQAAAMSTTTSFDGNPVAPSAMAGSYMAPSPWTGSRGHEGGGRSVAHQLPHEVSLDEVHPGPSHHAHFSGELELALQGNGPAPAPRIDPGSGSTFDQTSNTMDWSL

OsSPL14 [2] = target: T1, OsSPL14; assay: co-immunoprecipitation, immunoblot
[3] = target: T2, N-terminus of YFP-tagged SBP-domain of OsSPL14 (rice) (UniProt Q7EXZ2); assay: deletion analysis, BiFC in rice protoplasts
T2 sequence (looked up): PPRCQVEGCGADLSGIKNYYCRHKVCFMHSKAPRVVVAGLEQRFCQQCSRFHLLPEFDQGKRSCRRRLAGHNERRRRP

His-OsUBC13 (rice) = target: T3, His-OsUBC13 (rice) (UniProt Q9FZ48); assay: in vitro GST pull-down, immunoblot with anti-His and anti-GST
T3 sequence: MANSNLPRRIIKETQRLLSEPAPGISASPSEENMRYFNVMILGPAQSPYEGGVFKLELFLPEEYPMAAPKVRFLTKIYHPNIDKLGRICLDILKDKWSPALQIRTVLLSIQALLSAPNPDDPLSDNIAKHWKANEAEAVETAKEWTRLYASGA

binding (OsSPL14 [1]): binds
binding (OsSPL14 [2]): binds
B1: OsOTUB1.1-GFP (enzyme, not shown: large carriers)
chain: MGGDYYHSCCGDPDPDLRAPEGPKLPYVGDKEPLSTLAAEFQSGSPILQEKIKLLGEQYDALRRTRGDGNCFYRSFMFSYLEHILETQDKAEVERILKKIEQCKKTLADLGYIEFTFEDFFSIFIDQLESVLQGHESSIGAEELLERTRDQMVSDYVVMFFRFVTSGEIQRRAEFFEPFISGLTNSTVVQFCKASVEPMGEESDHVHIIALSDALGVPIRVMYLDRSSCDAGNISVNHHDFSPEANSSDGAAAAEKPYITLLYRPGHYDILYPK

binding [3]: binds
B2: C-terminus of YFP-tagged OsOTUB1.1 (enzyme)
chain: MGGDYYHSCCGDPDPDLRAPEGPKLPYVGDKEPLSTLAAEFQSGSPILQEKIKLLGEQYDALRRTRGDGNCFYRSFMFSYLEHILETQDKAEVERILKKIEQCKKTLADLGYIEFTFEDFFSIFIDQLESVLQGHESSIGAEELLERTRDQMVSDYVVMFFRFVTSGEIQRRAEFFEPFISGLTNSTVVQFCKASVEPMGEESDHVHIIALSDALGVPIRVMYLDRSSCDAGNISVNHHDFSPEANSSDGAAAAEKPYITLLYRPGHYDILYPK
notes: BiFC construct expressed in rice protoplasts; also called cYFP-OsOTUB1; cYFP-OsOTUB1.1; not shown: C-terminal fragment of YFP from vector pSY-735-35S-cYFP-HA

binding (His-OsUBC13 (rice)): binds
B3: recombinant GST-OsOTUB1 fusion protein (enzyme, not shown: a dimerising Fc or GST)
chain: MGGDYYHSCCGDPDPDLRAPEGPKLPYVGDKEPLSTLAAEFQSGSPILQEKIKLLGEQYDALRRTRGDGNCFYRSFMFSYLEHILETQDKAEVERILKKIEQCKKTLADLGYIEFTFEDFFSIFIDQLESVLQGHESSIGAEELLERTRDQMVSDYVVMFFRFVTSGEIQRRAEFFEPFISGLTNSTVVQFCKASVEPMGEESDHVHIIALSDALGVPIRVMYLDRSSCDAGNISVNHHDFSPEANSSDGAAAAEKPYITLLYRPGHYDILYPK
